# Assay results as given in PubChem BioAssay AID504444 (National Center for Advancing Translational Sciences (NCATS), 2011).
# Screen size: about 360,000 compounds; about 7,500 (2.1%) were called active. The shares of active, inactive and inconclusive entries below differ from those in the screen. Calls follow the shape of the dose curve; as a rule, active = well fitted inhibition curve with a large enough effect; inconclusive = small, poorly fitted or top-dose-only effect, or effect the other way; inactive = flat fitted curve, though single readings scatter. A potency beside an inconclusive call is a rough fit, not a confirmed value.
# Experiment: Nrf2 qHTS screen for inhibitors; also: nearly all actives have a fitted effect of over 60% in size
# Settings: A549 ARE-Fluc reporter, luciferase luminescence, 18-24 h; activity change, negative = inhibition: at 46 µM (top of the series)
# Summary of the method: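 Concentration-response testing used A549 ARE_Fluc cells at 5000 cells/well. Following an 18-24 h compound incubation, viability was read by fluorescence (Ex 405/Em 525) and luciferase output by luminescence.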
# % is scaled to controls: 0 for no effect and ±100 for the full control effect; potency is read from the fitted curve at half-maximal effect.
SMILES,Potency,"activity change, negative = inhibition"
Cc1cc([N+](=O)[O-])nn1CCCC(=O)NCc1ccccc1,"inconclusive: 0.146 µM [falling, full curve, poor fit]",–
Cc1ccc(-c2nc3cc(Cl)ccc3o2)cc1,"inconclusive: 10 µM [activator, partial curve]",–
CSc1cccc(NC(=S)Nc2ccc(F)cc2)c1,"inconclusive: 29.1 µM [activator, single point]",–
Cc1ccc(C)c(S(=O)(=O)N(C)C2CCS(=O)(=O)C2)c1 (stereo not given),"inconclusive: 0.184 µM [falling, full curve, poor fit]",–
O=C(Cn1c(=O)n(Cc2ccco2)c(=O)c2sc3ccccc3c21)Nc1ccccc1C(F)(F)F,–,inactive: 11.1%
Cc1nc2nc(C)c(CCC(=O)NCc3cccc(Cl)c3)c(C)n2n1,–,inactive: -7.18%
CCCc1[nH]nc2c1C(c1cn[nH]c1-c1ccc(F)cc1)C(C#N)=C(N)O2 (stereo not given),"inconclusive: 16.4 µM [falling, partial curve, poor fit]",–
O=C(Cc1ccc(Br)cc1)NC1CCN(Cc2ccccc2)CC1,"inconclusive: 25.9 µM [falling, single point]",–
O=C(CCCSc1nc2ccccc2[nH]1)Nc1ccccc1,"inconclusive: 29.1 µM [falling, single point]",–
CCc1ccc(NC(=O)C2CCN(C(=O)[C@@H]3Cc4ccccc4CN3)CC2)cc1,"inconclusive: 29.1 µM [activator, partial curve, poor fit]",–
NC(=O)CC(NC(=O)Cc1ccc(Br)cc1)c1ccc(NC2CCC2)c([N+](=O)[O-])c1 (stereo not given),"inconclusive: 20.6 µM [falling, partial curve, poor fit]",–
CNC(=O)COC(=O)/C=C/c1ccco1,–,inactive: -18.3%
COc1ccccc1N1CCN(/N=C/c2ccc([N+](=O)[O-])cc2)CC1,–,inactive: -9.92%
CC(=O)NCCNC(=O)c1ccc2c(=O)n(CCc3ccccc3)c(=O)[nH]c2c1,–,inactive: 4.89% [at 9.27 µM]
COc1cccc(C)c1NC(=O)C(OC(=O)CNC(=O)c1ccccc1)c1ccccc1 (stereo not given),–,inactive: 16.7%
CC(=O)N1c2ccc(S(=O)(=O)N3CCCCC3)cc2CC1C(=O)Nc1ccc(C)cc1 (stereo not given),"inconclusive: 29.1 µM [activator, single point]",–
COc1ccc(N(C)C(=O)c2cc3c(s2)-c2ccc(Cl)cc2S(=O)(=O)C3)c(OC)c1,"inconclusive: 2.31 µM [falling, full curve, poor fit]",–
COC(=O)CNC(=O)CSc1nc2sc(-c3ccccc3)cc2c(=O)n1-c1ccccc1,"inconclusive: 18.4 µM [activator, single point]",–
Cc1cccc(N=c2oc3cc(O)ccc3cc2C(N)=O)c1,"inconclusive: 16.4 µM [activator, partial curve]",–
COc1ccccc1C1C(C(C)=O)=C(C)N=c2s/c(=C\c3cc(OC)c(OC)c(OC)c3)c(=O)n21 (stereo not given),"inconclusive: 20.6 µM [falling, single point]",–
O=C(OCC(=O)N1CCN(C(=O)c2ccco2)CC1)c1cccc(F)c1,–,inactive: 7.28%
CCCc1nc(SCC(=O)N2CCCc3ccccc32)c2c(=O)n(C)c(=O)n(C)c2n1,"inconclusive: 29.1 µM [falling, single point]",–

SMILES,Potency,"activity change, negative = inhibition"
O=C(Nc1nnc(-c2cccs2)s1)C1CC1,"inconclusive: 20.6 µM [activator, single point]",–
O=C(CN1CCN(S(=O)(=O)c2ccccc2)CC1)Nc1ccc(Cl)c(Cl)c1,"inconclusive: 25.9 µM [falling, single point]",–
CCn1cc([N+](=O)[O-])c(=O)c2cc(F)c(N3CCOCC3)cc21,–,inactive: -4.45%
CC(C(=O)O)N1CCCCC1 (stereo not given),–,inactive: 3.46%
C/C(=N\Nc1ccc(Cl)cc1)c1ccncc1,"inconclusive: 9.2 µM [activator, partial curve, poor fit]",–
CN(C)S(=O)(=O)N1CCC(Oc2cccc(C(=O)NCCCC3CCCC3)c2)CC1,"inconclusive: 3.66 µM [activator, single point]",–
COc1ccc(OCc2cc(C(=O)N3CCN(CC4CC4)CC3)no2)c(Cl)c1,"inconclusive: 14.6 µM [activator, partial curve, poor fit]",–
COc1ccc(/C=N/NS(=O)(=O)c2ccccc2)cc1OC,"inconclusive: 18.4 µM [falling, single point]",–
COc1cc(C2CC(=O)N(CC(=O)Nc3ccccc3F)c3ccccc3S2)cc(OC)c1OC (stereo not given),"inconclusive: 29.1 µM [falling, single point]",–
CC(CCc1ccccc1)NC(=O)c1ccc(C(=O)NC(C)CCc2ccccc2)cc1 (stereo not given),active: 11.6 µM,–
CCCCCCOc1ccc(N2C(=O)CC(N3CCC(C(=O)OCC)CC3)C2=O)cc1 (stereo not given),"inconclusive: 16.4 µM [falling, partial curve, poor fit]",–
Cc1ccc(CCNC(=O)c2ccc(CSc3nc4ccncc4n3Cc3ccc(F)cc3)cc2)cc1,"inconclusive: 29.1 µM [falling, single point]",–
Cc1cccc(N(C(=O)c2ccc(Cl)cc2)C2CS(=O)(=O)CC2OC(=O)c2ccc(Cl)cc2)c1 (stereo not given),"inconclusive: 29.1 µM [falling, single point]",–
O=C(NCCOc1ccc(Cl)cc1)c1cccc(S(=O)(=O)N2CCCC2)c1,active: 23.1 µM,–
Cc1ccc(-n2nc(CO)c(C(=O)NC(C)c3ccccc3)n2)cc1C (stereo not given),"inconclusive: 1.03 µM [falling, full curve, poor fit]",–
COC(=O)c1sc2ccccc2c1S(=O)(=O)N1CCN(c2ccc(C(C)=O)cc2)CC1,–,inactive: 28.8%
COC(=O)c1ccccc1NC(=O)CCc1c(C)nc2cc(-c3ccc(Cl)cc3)nn2c1C,"inconclusive: 0.103 µM [falling, full curve, poor fit]",–
CCOc1ccc(NC(=S)N2CCCC2)cc1,"inconclusive: 4.11 µM [activator, partial curve, poor fit]",–
CC(C)(C)c1cc(NCCCn2ccnc2)n2ncc(-c3ccc(Cl)cc3)c2n1,–,inactive: -23%
COc1ccc(-n2c(=O)c3c4c(sc3n(CC(=O)NCC3CCCO3)c2=O)CCCC4)c(OC)c1 (stereo not given),"inconclusive: 16.4 µM [falling, single point]",–
Cc1cc(C)c2c(c1)/C(=N/NS(=O)(=O)c1ccccc1)CCC2,"inconclusive: 0.731 µM [falling, full curve, poor fit]",–
Cc1cccc(OCC(=O)Nc2cccc(-c3nc4ccccc4s3)c2)c1,"inconclusive: 2.91 µM [activator, full curve]",–

# Grouped by structure, the entries above with an aryl thioether with sulfur outside any ring (5)
SMILES,Potency,"activity change, negative = inhibition"
CSc1cccc(NC(=S)Nc2ccc(F)cc2)c1,"inconclusive: 29.1 µM [activator, single point]",–
O=C(CCCSc1nc2ccccc2[nH]1)Nc1ccccc1,"inconclusive: 29.1 µM [falling, single point]",–
COC(=O)CNC(=O)CSc1nc2sc(-c3ccccc3)cc2c(=O)n1-c1ccccc1,"inconclusive: 18.4 µM [activator, single point]",–
CCCc1nc(SCC(=O)N2CCCc3ccccc32)c2c(=O)n(C)c(=O)n(C)c2n1,"inconclusive: 29.1 µM [falling, single point]",–
Cc1ccc(CCNC(=O)c2ccc(CSc3nc4ccncc4n3Cc3ccc(F)cc3)cc2)cc1,"inconclusive: 29.1 µM [falling, single point]",–

# The list continues:

SMILES,Potency,"activity change, negative = inhibition"
COC(=O)CCC(=O)Nc1ccc(N=Nc2ccccc2)cc1,"inconclusive: 8.2 µM [activator, partial curve]",–
CSc1ncc2[nH]c(C(O)c3ccccc3)nc2n1 (stereo not given),"inconclusive: 14.6 µM [falling, partial curve]",–
O=C(/C=C/c1ccccc1)Nn1cnc2ccccc2c1=O,"inconclusive: 8.2 µM [activator, partial curve]",–
Cc1cc(NC(=O)CN2CCC(O)CC2)nc2c1c(=O)oc1ccccc12,"inconclusive: 29.1 µM [falling, single point]",–
O=C(c1ccc(Cl)cc1)C1CCN(C(=S)Nc2ccccc2)CC1,"inconclusive: 20.6 µM [falling, partial curve, poor fit]",–
O=C(NC1CCCC1)C(c1ccc(F)cc1)N(Cc1ccc(F)cc1)C(=O)c1ccn[nH]1 (stereo not given),–,inactive: 11.2%
CCOC(=O)NC(=O)COC(=O)CCCSc1nc2ccccc2s1,active: 18.4 µM,–
CNc1c(NS(=O)(=O)c2ccc(F)cc2)c(=O)oc2ccccc12,"inconclusive: 2.59 µM [falling, partial curve]",–
COCc1cc(C)nc(SCC(=O)Nc2ccc(C)c(C)c2)c1C#N,"inconclusive: 18.4 µM [activator, single point]",–
Cc1ccc(SCC(=O)N2CCN(c3ccc(F)cc3)CC2)cc1,–,inactive: -9.47%
Cc1ccccc1-c1cc(C(=O)Nc2sc(C(=O)OC(C)C)c(C)c2C#N)c2ccccc2n1,active: 2.59 µM,–
CCn1c(=O)n(CC2CCC(C(=O)NC(C)C)CC2)c(=O)c2sccc21 (stereo not given),"inconclusive: 23.1 µM [activator, partial curve, poor fit]",–
COc1ccc(S(=O)(=O)N(C)c2ccc(C(=O)N3CCCCC3)cc2)cc1,"inconclusive: 18.4 µM [falling, partial curve]",–
COc1ccc(OC)c(C(O)c2nc3ccccc3n2C)c1 (stereo not given),"inconclusive: 29.1 µM [falling, single point]",–
O=[N+]([O-])c1ccc(N2CCN(S(=O)(=O)c3ccccc3)CC2)c2cccnc12,"inconclusive: 23.1 µM [falling, single point]",–
O=c1cc(-c2ccccc2)[nH]n1-c1nc2ccccc2s1,"inconclusive: 23.1 µM [activator, single point]",–
CC(=O)N1CCN(S(=O)(=O)c2cccc(C(=O)NC3CCCC3)c2)CC1,"inconclusive: 25.9 µM [falling, partial curve, poor fit]",–
COc1ccc2cc3c(N)nn(C(=O)c4ccc(F)cc4Cl)c3nc2c1,"inconclusive: 18.4 µM [falling, partial curve]",–
CCCN(CC(=O)Nc1ccc(F)c(F)c1F)C(=O)c1cc([N+](=O)[O-])ccc1N1CCOCC1,–,inactive: -4.34%
O=c1oc2cc(Oc3ccc(C(F)(F)F)cc3[N+](=O)[O-])ccc2c2c1CCCC2,"inconclusive: 10.3 µM [falling, partial curve]",–
COc1ccc(N=Nc2c(C)[nH]c3ccccc23)cc1,"inconclusive: 23.1 µM [activator, partial curve, poor fit]",–
